Measured values published in PubChem BioAssay AID1671190 (National Center for Advancing Translational Sciences (NCATS), 2021).
Values joined by “and” are separate entries in the source; they are usually repeats but may differ in a detail not shown here. Identical values can stand only once. Among all 580,000 compounds or so, about 6,100 (1.1%) were called active. This list was built around the results that the source calls inconclusive (neither active nor inactive); the mix of calls is not that of the screen. The call rests on the fitted dose curve; in most records, active means well fitted inhibition curve with a large enough effect; inconclusive means small, poorly fitted or top-dose-only effect, or another doubt; inactive means no such curve, though single readings can be large or run the other way. Potencies of inconclusive entries are doubtful fits and often do not repeat.

Protein sequences, listed by entry. Tags and fused reporters are not part of them.
UniProt P18054, whole entry: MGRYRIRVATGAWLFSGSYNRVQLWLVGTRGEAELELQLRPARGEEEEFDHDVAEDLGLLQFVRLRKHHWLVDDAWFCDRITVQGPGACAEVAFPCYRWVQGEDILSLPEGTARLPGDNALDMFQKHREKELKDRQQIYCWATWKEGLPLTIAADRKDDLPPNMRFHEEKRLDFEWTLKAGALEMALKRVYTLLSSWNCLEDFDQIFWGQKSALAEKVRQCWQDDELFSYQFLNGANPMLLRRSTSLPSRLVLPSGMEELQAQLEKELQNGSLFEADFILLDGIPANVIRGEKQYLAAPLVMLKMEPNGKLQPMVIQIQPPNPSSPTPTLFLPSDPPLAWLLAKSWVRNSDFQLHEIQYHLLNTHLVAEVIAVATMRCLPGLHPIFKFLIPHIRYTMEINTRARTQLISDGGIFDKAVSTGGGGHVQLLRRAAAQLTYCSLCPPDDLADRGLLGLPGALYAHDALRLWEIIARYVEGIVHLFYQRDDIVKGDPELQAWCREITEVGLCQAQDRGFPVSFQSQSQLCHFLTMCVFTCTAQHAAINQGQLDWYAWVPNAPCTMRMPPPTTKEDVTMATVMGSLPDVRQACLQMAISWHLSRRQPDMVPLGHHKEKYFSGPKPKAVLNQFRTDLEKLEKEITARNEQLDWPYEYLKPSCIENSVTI

target: Polyunsaturated fatty acid lipoxygenase ALOX12 (Homo sapiens) (UniProt P18054); assay: Primary qHTS assay for inhibitors of human arachidonate 12S-lipoxygenase (ALOX12): Round 2; conditions: purified 12hLO, xylenol orange hydroperoxide absorbance; activity change, negative = inhibition: at 108 µM (top of the series)
Procedure, shortened: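 Hydroperoxide product was detected by ferrous iron/xylenol orange as the 573 to 405 nm absorbance ratio. Arachidonic acid at 40 uM (final) was turned over for 30 min at room temperature by 150 nM human 12hLO, pH 7.0 Hepes buffer, after 15 min compound preincubation.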
On the % scale 0 is the no-effect control and ±100 the full control effect; potency means the concentration at half of the fitted maximal effect.

Row | SMILES | activity change, negative = inhibition | Potency
1 | COc1cc2c(cc1OC)[C@@H]1C(=O)c3ccc4c(c3O[C@@H]1CO2)C[C@H](C(C)C)O4 | inactive: 205% | 
2 | CCCn1cc(C(=O)NCC2CCCN2CC)c2ccccc21 (centres undefined) | inactive: 6.18% | 
3 | COc1ccc(C(=O)c2nc3ccccc3n2C(C)C)cc1 |  | inconclusive: 112 µM [inhibitor, single point]
4 | CC(=O)C1CCOC1=O (centres undefined) | inactive: -7.08% [at 22.9 µM] | 
5 | NC(CCP(=O)(O)O)C(=O)O (centres undefined) | inactive: 6.12% | 
6 | CC(c1ccccc1)n1cncc1C(=O)O (centres undefined) |  | inconclusive: 112 µM [inhibitor, single point]
7 | CCN(CC)c1ccc(N=Cc2c(O)n(-c3ccc(OC)cc3)c(=O)[nH]c2=O)cc1 | inactive: -20.6% | 
8 | COc1ccc(-n2nnnc2C(c2cccc(OC)c2OC)N2CCC(n3c(=O)[nH]c4ccccc43)CC2)cc1 (centres undefined) | inactive: 2.18% | 
9 | O=C1NCN(c2ccccc2)C12CCN(C(c1ccccc1)c1nnnn1-c1ccc3c(c1)OCCO3)CC2 (centres undefined) | inactive: -15.2% | 
10 | Oc1ccc(C2=CCNCC2)cc1O | inactive: -16.6% | 
11 | O=C(COc1ccc2c(-c3ccccc3)cc(=O)oc2c1)N1CCN(CCO)CC1 |  | inconclusive: 44.7 µM [inhibitor, partial curve, poor fit]
12 | Cc1ccc(S(=O)(=O)NCCNc2ccc([N+](=O)[O-])c3cccnc23)cc1 | inactive: 9.51% | 
13 | CCN(CC)c1ccc(/C=C2\C(=O)NC(=O)N(CC3CCCO3)C2=O)cc1 (centres undefined) |  | inconclusive: 25.1 µM [inhibitor, partial curve, poor fit]
14 | FC(F)(F)CN1C2CCC1CN(c1cncc(Br)c1)C2 |  | inconclusive: 79.4 µM [inhibitor, single point]
15 | C=C[C@@H]1CN2CCC1C[C@@H]2[C@@H](O)c1ccnc2ccccc12 (some centres undefined) |  | inconclusive: 3.85 µM [inhibitor, partial curve, poor fit]
16 | COc1ccccc1N1CCN(Cc2ccc(SC)cc2)CC1 | inactive: 0% | 
17 | CC(CC(C)(C)N1CC1)=NNC(=O)Nc1cccc2ccccc12 |  | inconclusive: 35.5 µM [inhibitor, partial curve, poor fit]
18 | CN1C[C@H](CO)C[C@@H]2c3cccc4[nH]cc(c34)C[C@H]21 | inactive: 3.27% | 
19 | O=C(NCCN1CCOCC1)c1ccc(Cl)nc1Cl | inactive: -11.3% | 
20 | Cc1cc(Br)ccc1N1C(=O)CC(=O)NC1=O |  | active: 44.7 µM
21 | Cn1c(=O)cc(OCC(=O)N2CCN(C3CCCCC3)CC2)c2ccccc21 | inactive: 3.96% [at 57.4 µM] | 
22 | FC(F)CN1CCNCC1 |  | inconclusive: 22.4 µM [inhibitor, partial curve, poor fit]
23 | CCCCCN1C(=O)c2ccccc2[C@@]2(C(=O)OCC)Cc3cc(OC)ccc3[C@@H]12 | inactive: 0% | 

Row | SMILES | activity change, negative = inhibition | Potency
24 | Cn1nnc(CC[N+](C)(C)C)n1 |  | inconclusive: 112 µM [inhibitor, single point]
25 | COc1ccc(CNCCc2c(C)[nH]c3ccc(OC(F)(F)F)cc23)c(OC)c1 |  | inconclusive: 44.7 µM [inhibitor, partial curve]
26 | CCCCCCC(Cl)(Cn1ccnc1)c1ccccc1 (centres undefined) |  | inconclusive: 112 µM [inhibitor, single point]
27 | Cc1ccc(OC(=O)N(C)C[C@@H]2OCc3ccccc3-c3c(n(C)c4ccccc34)C(=O)N([C@H](C)CO)C[C@H]2C)cc1 |  | inconclusive: 126 µM [inhibitor, single point]
28 | Cc1cc(S(=O)(=O)N2[C@H]3CC[C@@H]2c2cnc(-c4ccccc4)nc2C3)ccc1F |  | inconclusive: 89.1 µM [inhibitor, single point]
29 | COc1ccc(N=C2SCCCN2C)cc1 |  | inconclusive: 44.7 µM [inhibitor, single point]
30 | CN(C)c1ccc(/C=C2\C(=O)NC(=O)N(CCc3ccc(F)cc3)C2=O)cc1 |  | active: 15.8 µM
31 | COc1ccccc1-c1cc([C@H]2CN3CC[C@H]2C[C@@H]3COC(=O)Nc2ccccc2)nc(C)n1 | inactive: 3.6% | 
32 | CCOC(=O)[C@]12Cc3cc(Cl)ccc3[C@H]1N(C)C(=O)c1cc(OC)ccc12 |  | inconclusive: 63.1 µM [inhibitor, partial curve, poor fit]
33 | O=c1[nH]c2ccccc2n1C1CCN(C(c2cccs2)c2nnnn2-c2ccc3c(c2)OCCO3)CC1 (centres undefined) | inactive: 3.98% | 
34 | CCCN1C(=O)NC(=O)C2(Cc3c(ccc4ccccc34)N(C)C2)C1=O (centres undefined) |  | inconclusive: 44.7 µM [inhibitor, partial curve, poor fit]
35 | CN(C)C1(c2nnnn2-c2ccc(Cl)cc2)CCCCC1 | inactive: -11.9% | 
36 | C[C@]12CC[C@H]3C(CCC4(O)CC(O)CC[C@]34C=O)C1=CC[C@H]2c1ccc(=O)oc1 (some centres undefined) | inactive: 30.3% | 
37 | COCCNC(=O)c1c(N)n(CCC(C)C)c2nc3ccccc3nc12 |  | inconclusive: 44.7 µM [inhibitor, partial curve, poor fit]
38 | CC1C2Cc3ccc(O)cc3C1(C)CCN2CC1CC1 (centres undefined) | inactive: -8.68% | 
39 | CCOC(=O)CNC(=O)N1Cc2ccccc2-n2nncc2C1 |  | inconclusive: 44.7 µM [inhibitor, single point]
40 | OCCNc1cc(N2CC[C@@]3(O)CCNC[C@H]3C2)ncn1 | inactive: 24.8% | 
41 | O=c1[nH]oc2c1CCNC2 |  | inconclusive: 11.2 µM [inhibitor, full curve, poor fit]
42 | COc1cccc(N2CCN(Cc3cccc(Cl)c3)CC2)c1 |  | inconclusive: 39.8 µM [inhibitor, partial curve, poor fit]
43 | Cc1cc(C(=O)OCC(=O)Nc2ccc(F)cc2F)c(C)n1C1CC1 |  | inconclusive: 79.4 µM [inhibitor, single point]
44 | Cc1cc(OC(=O)CCNC(=O)OC(C)(C)C)c2c3c(c(=O)oc2c1)CCC3 | inactive: 16.2% | 
45 | C[C@]12CC[C@H](O)CC1=CCC1C2CC[C@]2(C)C(=O)[C@H](Br)CC12 (some centres undefined) |  | inconclusive: 44.7 µM [inhibitor, partial curve, poor fit]
46 | O=C1c2ccccc2-c2cc3ccccc3cc21 |  | inconclusive: 39.8 µM [inhibitor, partial curve, poor fit]

Row | SMILES | activity change, negative = inhibition | Potency
47 | COC(=O)C1=C(c2cccc(OC)c2OC)C[C@@H]2CC[C@H]1N2C(=O)NCc1cccc2ccccc12 |  | inconclusive: 89.1 µM [inhibitor, single point]
48 | COC1C(C)OC(OC2CC(C)(O)Cc3cc4c(c(O)c32)C(=O)c2c(O)cc3c(c2C4=O)OC2OC3(C)C(O)C(N(C)C)C2O)C(OC)C1(C)OC (centres undefined) |  | inconclusive: 50.1 µM [inhibitor, partial curve, poor fit]
49 | CC(=O)O[C@@H]1CC[C@]2(C)C3CC[C@@]4(C)C(C[C@@H](O)[C@@H]4O)C3[C@@H](OC(C)=O)C[C@H]2C1 (some centres undefined) | inactive: 2.57% | 
50 | Cc1cccc(CN2C(=O)CN=C(c3ccccc3Cl)c3cc(Cl)ccc32)c1 |  | inconclusive: 63.1 µM [inhibitor, partial curve, poor fit]
51 | COC(=O)C1=C(c2ccc(F)cc2F)C[C@@H]2CC[C@H]1N2C(=O)N1CCCC1 | inactive: -3.38% | 
52 | CN1CCN(C(=O)Cc2c[nH]c3ncc(-c4ccccc4Oc4ccccc4)cc23)CC1 |  | inconclusive: 126 µM [inhibitor, single point]
53 | O=C1NC(=S)N(c2ccc(F)cc2)C(=O)/C1=C/c1ccccc1O |  | inconclusive: 89.1 µM [inhibitor, partial curve, poor fit]
54 | O=[N+]([O-])c1cc2c(cc1CNCCc1ccc3c(c1)OCO3)OCO2 |  | inconclusive: 20 µM [inhibitor, full curve]
55 | CCOc1cc2c(cc1OCC)-n1cccc1C(c1cccc([N+](=O)[O-])c1)NC2 (centres undefined) |  | inconclusive: 44.7 µM [inhibitor, partial curve, poor fit]
56 | CC(C)(C)c1cc(C=C(C#N)C#N)cc(C(C)(C)C)c1O |  | inactive and inconclusive: 44.7 µM [inhibitor, partial curve, poor fit]
57 | COc1cc(C2c3cc4c(c(O)c3CC3COC(=O)C32)OCO4)cc(OC)c1O (centres undefined) |  | inconclusive: 100 µM [inhibitor, single point]
58 | C#CCNC1CCCCC1 | inactive: -5.59% | 
59 | O=[N+]([O-])c1ccc(NCc2ccccc2)c2ncccc12 | inactive: -14.9% | 
60 | CC(=O)c1ccc(NC(=O)c2sc3nc4c(cc3c2N)N2CCC4CC2)cc1 |  | inconclusive: 31.6 µM [inhibitor, partial curve, poor fit]
61 | O=C(O)c1nn(Cc2ccc(Cl)cc2Cl)c2ccccc12 |  | inconclusive: 31.6 µM [inhibitor, partial curve, poor fit]
62 | CCCCN1C(=O)/C(=C/C=C/c2ccco2)C(=O)NC1=S |  | active: 6.31 µM
63 | CNCCc1cnc[nH]1 |  | inconclusive: 2.24 µM [inhibitor, full curve, poor fit] and inconclusive: 31.6 µM [inhibitor, single point]
64 | CCN(CC)c1ccc(/C=C2/C(=O)NC(=O)N(Cc3ccco3)C2=O)cc1 |  | inconclusive: 50.1 µM [inhibitor, partial curve, poor fit]
65 | Cc1ccsc1C(=O)C1CCCN(Cc2cnc(N3CCCC3)s2)C1 (centres undefined) |  | inconclusive: 12.6 µM [inhibitor, full curve, poor fit]
66 | Cc1cc(/C=C2\C(=O)NC(=O)N(Cc3ccco3)C2=O)c(C)n1-c1ccc(C(=O)O)cc1 |  | inconclusive: 56.2 µM [inhibitor, partial curve, poor fit]
67 | O=C(O)C(Cl)Cl |  | inconclusive: 35.5 µM [inhibitor, single point]
68 | CCN1C(=O)C(O)(C(F)(F)F)c2cc(C(O)(C(=O)OC)C(F)(F)F)ccc21 (centres undefined) |  | inconclusive: 100 µM [inhibitor, single point]
69 | Cc1ccc(N/N=C/c2c(O)n(-c3ccccc3)c(=O)[nH]c2=O)cc1 |  | inconclusive: 44.7 µM [inhibitor, partial curve, poor fit]
